The list shows a part of the results.
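Also: competitive chemoproteomic profiling in live THP-1 cells with an iodoacetamide desthiobiotin (IA-DTB) probe, comparing probe-labelled peptide intensities in compound-treated cells against DMSO-treated controls.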

Amino acid sequences for entries named in this document (tags omitted). A change or cut given only in a name is not applied to a line headed by its entry.
UniProt Q14684: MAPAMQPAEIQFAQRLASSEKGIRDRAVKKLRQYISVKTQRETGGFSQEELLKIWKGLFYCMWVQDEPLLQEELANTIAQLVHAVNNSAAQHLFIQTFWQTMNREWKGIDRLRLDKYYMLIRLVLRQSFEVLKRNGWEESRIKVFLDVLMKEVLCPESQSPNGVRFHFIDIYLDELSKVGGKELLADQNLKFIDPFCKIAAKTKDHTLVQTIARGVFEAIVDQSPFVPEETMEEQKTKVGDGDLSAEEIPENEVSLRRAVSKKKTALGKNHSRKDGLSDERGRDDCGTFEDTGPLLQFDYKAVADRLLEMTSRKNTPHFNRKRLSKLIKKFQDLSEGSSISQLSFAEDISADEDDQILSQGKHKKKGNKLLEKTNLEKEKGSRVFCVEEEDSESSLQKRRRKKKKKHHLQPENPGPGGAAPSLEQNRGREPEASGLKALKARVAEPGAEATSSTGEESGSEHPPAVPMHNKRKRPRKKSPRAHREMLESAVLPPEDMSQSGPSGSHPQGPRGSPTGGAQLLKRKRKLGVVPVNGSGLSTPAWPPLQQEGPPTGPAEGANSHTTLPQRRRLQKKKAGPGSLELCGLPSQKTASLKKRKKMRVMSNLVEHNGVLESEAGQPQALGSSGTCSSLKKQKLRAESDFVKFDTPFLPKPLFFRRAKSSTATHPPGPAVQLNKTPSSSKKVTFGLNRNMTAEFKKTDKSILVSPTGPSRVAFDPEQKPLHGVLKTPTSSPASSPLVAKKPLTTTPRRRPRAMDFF
UniProt Q96T23: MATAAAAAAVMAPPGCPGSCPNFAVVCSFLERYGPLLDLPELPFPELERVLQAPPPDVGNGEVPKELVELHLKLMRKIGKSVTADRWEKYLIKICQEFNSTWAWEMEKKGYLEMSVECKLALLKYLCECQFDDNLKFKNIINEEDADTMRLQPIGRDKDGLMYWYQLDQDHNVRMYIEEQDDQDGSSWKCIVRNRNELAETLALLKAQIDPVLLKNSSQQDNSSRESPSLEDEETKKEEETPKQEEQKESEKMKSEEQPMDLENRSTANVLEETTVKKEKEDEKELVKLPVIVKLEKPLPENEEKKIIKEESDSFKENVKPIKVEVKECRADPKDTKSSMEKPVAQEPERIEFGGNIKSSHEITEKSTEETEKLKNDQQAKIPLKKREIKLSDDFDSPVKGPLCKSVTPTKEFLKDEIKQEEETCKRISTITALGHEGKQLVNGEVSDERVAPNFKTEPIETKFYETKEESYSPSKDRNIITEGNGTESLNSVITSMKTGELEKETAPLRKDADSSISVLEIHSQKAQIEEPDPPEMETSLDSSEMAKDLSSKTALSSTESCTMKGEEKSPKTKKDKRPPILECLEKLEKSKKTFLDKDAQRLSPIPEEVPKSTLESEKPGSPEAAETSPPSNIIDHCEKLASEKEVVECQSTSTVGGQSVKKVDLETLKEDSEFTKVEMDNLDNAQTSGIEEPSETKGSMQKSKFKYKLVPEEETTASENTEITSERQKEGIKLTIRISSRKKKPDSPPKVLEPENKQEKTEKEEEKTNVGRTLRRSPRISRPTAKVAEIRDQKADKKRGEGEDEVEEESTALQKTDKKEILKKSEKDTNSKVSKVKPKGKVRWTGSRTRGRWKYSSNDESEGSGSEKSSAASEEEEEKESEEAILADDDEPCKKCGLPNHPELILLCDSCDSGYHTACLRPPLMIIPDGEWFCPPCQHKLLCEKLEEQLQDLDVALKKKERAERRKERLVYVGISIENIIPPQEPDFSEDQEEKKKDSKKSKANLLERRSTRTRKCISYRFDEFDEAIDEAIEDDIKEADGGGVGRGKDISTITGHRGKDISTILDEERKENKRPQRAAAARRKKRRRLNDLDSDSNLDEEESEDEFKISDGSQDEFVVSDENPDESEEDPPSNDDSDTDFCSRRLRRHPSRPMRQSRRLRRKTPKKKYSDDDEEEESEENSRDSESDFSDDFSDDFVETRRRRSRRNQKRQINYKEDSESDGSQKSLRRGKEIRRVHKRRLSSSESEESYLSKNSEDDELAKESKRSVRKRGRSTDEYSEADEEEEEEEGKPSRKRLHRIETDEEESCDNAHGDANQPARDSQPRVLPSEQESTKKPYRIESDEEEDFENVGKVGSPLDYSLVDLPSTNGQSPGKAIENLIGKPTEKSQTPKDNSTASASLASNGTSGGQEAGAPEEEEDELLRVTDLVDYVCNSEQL
UniProt Q9BY42: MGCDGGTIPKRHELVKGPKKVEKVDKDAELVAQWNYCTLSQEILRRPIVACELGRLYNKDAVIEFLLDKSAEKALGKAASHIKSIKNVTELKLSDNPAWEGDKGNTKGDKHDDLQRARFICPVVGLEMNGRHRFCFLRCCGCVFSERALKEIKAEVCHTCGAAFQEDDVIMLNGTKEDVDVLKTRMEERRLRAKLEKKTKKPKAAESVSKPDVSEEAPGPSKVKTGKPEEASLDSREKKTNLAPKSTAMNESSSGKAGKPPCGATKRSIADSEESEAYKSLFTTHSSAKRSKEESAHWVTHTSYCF
UniProt Q5JTH9: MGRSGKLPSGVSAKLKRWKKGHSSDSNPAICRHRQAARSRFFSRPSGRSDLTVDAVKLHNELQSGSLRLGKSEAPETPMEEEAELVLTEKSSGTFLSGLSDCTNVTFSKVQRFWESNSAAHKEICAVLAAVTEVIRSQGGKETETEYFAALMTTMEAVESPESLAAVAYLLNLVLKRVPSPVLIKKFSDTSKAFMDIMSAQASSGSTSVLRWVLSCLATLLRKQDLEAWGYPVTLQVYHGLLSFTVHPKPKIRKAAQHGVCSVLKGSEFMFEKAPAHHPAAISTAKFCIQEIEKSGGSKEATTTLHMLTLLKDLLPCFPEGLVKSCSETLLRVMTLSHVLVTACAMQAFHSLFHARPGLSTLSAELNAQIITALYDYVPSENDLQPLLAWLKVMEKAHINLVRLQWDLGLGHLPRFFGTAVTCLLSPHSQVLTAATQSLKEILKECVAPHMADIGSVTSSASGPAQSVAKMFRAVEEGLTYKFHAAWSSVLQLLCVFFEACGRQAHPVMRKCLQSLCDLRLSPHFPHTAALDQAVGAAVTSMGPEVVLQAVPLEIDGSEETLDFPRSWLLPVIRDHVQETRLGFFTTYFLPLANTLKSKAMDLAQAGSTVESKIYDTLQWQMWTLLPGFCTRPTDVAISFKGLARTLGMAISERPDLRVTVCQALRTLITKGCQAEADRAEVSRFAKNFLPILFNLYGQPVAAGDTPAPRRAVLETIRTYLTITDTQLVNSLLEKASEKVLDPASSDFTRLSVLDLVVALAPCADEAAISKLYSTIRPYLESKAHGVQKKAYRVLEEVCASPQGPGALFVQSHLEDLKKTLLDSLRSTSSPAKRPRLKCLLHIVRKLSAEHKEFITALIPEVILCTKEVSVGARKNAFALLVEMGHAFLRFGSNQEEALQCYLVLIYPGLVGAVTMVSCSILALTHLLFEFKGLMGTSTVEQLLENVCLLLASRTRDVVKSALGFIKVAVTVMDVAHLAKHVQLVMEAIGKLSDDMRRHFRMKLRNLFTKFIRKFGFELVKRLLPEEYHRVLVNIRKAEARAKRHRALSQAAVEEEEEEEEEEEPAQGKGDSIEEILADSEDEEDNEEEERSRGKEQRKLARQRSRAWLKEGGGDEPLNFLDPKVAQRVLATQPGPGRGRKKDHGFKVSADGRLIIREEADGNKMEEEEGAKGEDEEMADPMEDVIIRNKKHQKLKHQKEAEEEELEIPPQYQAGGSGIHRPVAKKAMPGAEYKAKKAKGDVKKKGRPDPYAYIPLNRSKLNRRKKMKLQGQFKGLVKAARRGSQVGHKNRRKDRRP
UniProt P19793: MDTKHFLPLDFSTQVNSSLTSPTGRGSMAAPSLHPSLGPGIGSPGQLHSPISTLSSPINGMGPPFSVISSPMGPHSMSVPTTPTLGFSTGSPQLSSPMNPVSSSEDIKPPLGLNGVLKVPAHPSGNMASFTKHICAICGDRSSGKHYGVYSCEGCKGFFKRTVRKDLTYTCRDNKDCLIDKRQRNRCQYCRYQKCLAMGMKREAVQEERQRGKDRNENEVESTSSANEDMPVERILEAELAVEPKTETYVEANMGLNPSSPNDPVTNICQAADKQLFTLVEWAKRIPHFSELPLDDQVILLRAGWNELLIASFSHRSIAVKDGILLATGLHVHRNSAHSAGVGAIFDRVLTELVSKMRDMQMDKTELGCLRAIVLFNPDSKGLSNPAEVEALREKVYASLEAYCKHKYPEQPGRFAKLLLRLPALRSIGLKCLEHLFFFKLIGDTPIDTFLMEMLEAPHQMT
UniProt O43159: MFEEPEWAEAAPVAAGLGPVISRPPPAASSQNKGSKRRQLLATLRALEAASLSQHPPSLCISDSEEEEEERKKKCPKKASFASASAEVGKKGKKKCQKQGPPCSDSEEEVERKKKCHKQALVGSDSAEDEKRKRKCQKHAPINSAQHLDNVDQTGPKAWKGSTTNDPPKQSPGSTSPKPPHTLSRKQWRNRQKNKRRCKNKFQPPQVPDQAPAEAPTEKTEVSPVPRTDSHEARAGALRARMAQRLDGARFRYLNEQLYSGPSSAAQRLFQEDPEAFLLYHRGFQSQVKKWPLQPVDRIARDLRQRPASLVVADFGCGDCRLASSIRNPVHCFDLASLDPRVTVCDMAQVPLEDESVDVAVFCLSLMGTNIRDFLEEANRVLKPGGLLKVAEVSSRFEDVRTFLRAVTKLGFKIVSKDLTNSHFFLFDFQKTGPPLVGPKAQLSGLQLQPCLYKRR
UniProt Q8N122, whole entry, looked up: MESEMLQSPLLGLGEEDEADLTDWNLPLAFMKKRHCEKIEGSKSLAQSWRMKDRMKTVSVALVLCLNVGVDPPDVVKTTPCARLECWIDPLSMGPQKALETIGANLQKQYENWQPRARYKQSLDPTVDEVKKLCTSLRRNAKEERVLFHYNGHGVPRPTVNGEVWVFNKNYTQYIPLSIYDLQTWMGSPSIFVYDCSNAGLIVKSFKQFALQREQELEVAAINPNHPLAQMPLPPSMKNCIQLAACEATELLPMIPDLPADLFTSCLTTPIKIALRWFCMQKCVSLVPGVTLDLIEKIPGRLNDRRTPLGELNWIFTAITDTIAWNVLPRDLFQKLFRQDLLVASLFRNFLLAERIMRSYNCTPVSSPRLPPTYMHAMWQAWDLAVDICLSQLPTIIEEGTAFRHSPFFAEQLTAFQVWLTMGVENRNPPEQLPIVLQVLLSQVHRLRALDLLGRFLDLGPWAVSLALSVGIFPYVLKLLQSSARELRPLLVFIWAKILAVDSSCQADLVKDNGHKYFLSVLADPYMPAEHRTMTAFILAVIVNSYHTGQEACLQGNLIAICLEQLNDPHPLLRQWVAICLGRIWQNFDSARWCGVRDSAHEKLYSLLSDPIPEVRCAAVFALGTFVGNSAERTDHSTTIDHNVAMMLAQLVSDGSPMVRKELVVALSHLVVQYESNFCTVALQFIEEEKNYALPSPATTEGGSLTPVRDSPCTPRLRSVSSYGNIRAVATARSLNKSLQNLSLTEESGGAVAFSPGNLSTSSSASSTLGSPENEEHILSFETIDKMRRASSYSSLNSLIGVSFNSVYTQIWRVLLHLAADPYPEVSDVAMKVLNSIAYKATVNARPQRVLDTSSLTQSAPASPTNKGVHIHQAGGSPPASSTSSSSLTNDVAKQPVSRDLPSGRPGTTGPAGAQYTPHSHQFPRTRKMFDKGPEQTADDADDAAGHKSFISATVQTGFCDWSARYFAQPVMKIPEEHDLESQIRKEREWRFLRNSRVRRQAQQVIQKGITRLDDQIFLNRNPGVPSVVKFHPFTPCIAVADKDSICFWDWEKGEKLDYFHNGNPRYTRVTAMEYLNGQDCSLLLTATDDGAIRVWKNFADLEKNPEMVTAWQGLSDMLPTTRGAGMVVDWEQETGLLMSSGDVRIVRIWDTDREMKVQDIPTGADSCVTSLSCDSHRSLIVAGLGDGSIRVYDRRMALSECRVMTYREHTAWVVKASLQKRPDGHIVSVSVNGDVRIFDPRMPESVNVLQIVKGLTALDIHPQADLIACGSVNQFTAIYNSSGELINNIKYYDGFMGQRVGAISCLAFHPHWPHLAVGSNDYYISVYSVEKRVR
UniProt Q9UBE0: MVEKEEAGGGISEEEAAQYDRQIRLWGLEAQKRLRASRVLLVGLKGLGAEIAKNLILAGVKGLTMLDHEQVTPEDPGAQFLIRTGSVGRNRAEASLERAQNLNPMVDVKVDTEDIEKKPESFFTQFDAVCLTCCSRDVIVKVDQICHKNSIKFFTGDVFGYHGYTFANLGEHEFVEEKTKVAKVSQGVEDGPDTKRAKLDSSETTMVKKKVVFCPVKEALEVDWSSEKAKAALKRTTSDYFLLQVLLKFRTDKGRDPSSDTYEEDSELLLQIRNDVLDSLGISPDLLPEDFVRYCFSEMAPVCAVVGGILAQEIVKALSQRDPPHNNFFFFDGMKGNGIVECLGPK

Compound in the assay: CC1Cc2ccccc2N1C(=O)C1CCCN(C1)C(=O)CCl (mixture of isomers) [TRIM25 ligand 11 (diastereomer mixture)]
As to the kind of experiment: probe-labelled cysteine peptide fold change vs DMSO (competition) (log2 fold change); higher = less target engagement (more negative = stronger competition). Conditions: 10 µM; THP-1; incubation time: 4 h.
On to “SACS_Q9NZJ4_2255_GNSFKPETMFAATDLYTAEHQDIVCLLQPILNENSHSFR (UniProt Q9NZJ4)”, for which the “probe-labelled cysteine peptide fold change” value was 0.096.

With “RTN4IP1_Q8WWV3_236_AWDAHVTAVCSQDASELVR (UniProt Q8WWV3)”, the “probe-labelled cysteine peptide fold change” value came out at 0.0198.

For “RPS3_P23396_119_RACYGVLR (UniProt P23396)”, the “probe-labelled cysteine peptide fold change” value is -0.079.

Regarding “RPS29_P62273_39_KYGLNMCR (UniProt P62273)”, the “probe-labelled cysteine peptide fold change” value was -0.16.

Take “RPP40_O75818_49_VSFLIPECGILSEELK (UniProt O75818)”: the “probe-labelled cysteine peptide fold change” value came to 0.101.

Consider “RRP1B_Q14684_286_GRDDCGTFEDTGPLLQFDYK (UniProt Q14684)”, for which the “probe-labelled cysteine peptide fold change” value was determined as 0.0559.

On to “SAC3D1_A6NKF1_290_LLQTLPYLPSCAVQCHVGHAR (UniProt A6NKF1)”, for which the “probe-labelled cysteine peptide fold change” value was -0.0384.

With “RSF1_Q96T23_1311_IETDEEESCDNAHGDANQPAR (UniProt Q96T23)”, the “probe-labelled cysteine peptide fold change” value is 0.0514.

“RTFDC1_Q9BY42_51_RPIVACELGR (UniProt Q9BY42)”: the “probe-labelled cysteine peptide fold change” value was -0.104.

On to “RRP12_Q5JTH9_102_SSGTFLSGLSDCTNVTFSK (UniProt Q5JTH9)”, for which the “probe-labelled cysteine peptide fold change” value was determined as 0.0888.

“RPS12_P25398_106+108_VVGCSCVVVK (UniProt P25398)”: the “probe-labelled cysteine peptide fold change” value is 0.00215.

“RXRA_P19793_369_TELGCLR (UniProt P19793)”: the “probe-labelled cysteine peptide fold change” value was -0.0466.

As for “RRP8_O43159_332_NPVHCFDLASLDPR (UniProt O43159)”, the “probe-labelled cysteine peptide fold change” value worked out at 0.204.

On to “RREB1_Q92766_1251_ITCPHCPR (UniProt Q92766)”, for which the “probe-labelled cysteine peptide fold change” value is -0.0787.

With “RRM1_P23921_218_WFTHASPTLFNAGTNRPQLSSCFLLSMKDDSIEGIYDTLK (UniProt P23921)”, the “probe-labelled cysteine peptide fold change” value is 0.111.

In the case of “RRP12_Q5JTH9_799_VLEEVCASPQGPGALFVQSHLEDLKK (UniProt Q5JTH9)”, the “probe-labelled cysteine peptide fold change” value was -0.0461.

For “RSL1D1_O76021_96_SDSEDICLFTK (UniProt O76021)”, the “probe-labelled cysteine peptide fold change” value is -0.0174.

As for “RPTOR_Q8N122_1168_VQDIPTGADSCVTSLSCDSHR (UniProt Q8N122)”, the “probe-labelled cysteine peptide fold change” value is -0.0403.

For the target “RPS17_P08708_35_VCEEIAIIPSK (UniProt P08708)”, the “probe-labelled cysteine peptide fold change” value is -0.0889.

In the case of “SAE1_Q9UBE0_214_KVVFCPVK (UniProt Q9UBE0)”, the “probe-labelled cysteine peptide fold change” value was -0.0881.

In the case of “RSBN1_Q5VWQ0_207_GPDGDPSSCGTDLK (UniProt Q5VWQ0)”, the “probe-labelled cysteine peptide fold change” value was -0.0689.

As to “RPS8_P62241_71+72_LDVGNFSWGSECCTR (UniProt P62241)”, the “probe-labelled cysteine peptide fold change” value was -0.045.

The record behind these values is the supplement of paper PMC12067093, “Discovery and optimisation of a covalent ligand for TRIM25 and its application to targeted protein ubiquitination” (Chemical Science, 2025).
